# Laboratory results from the supplement of paper PMC8728848.
# The other results are listed elsewhere or left out.
# B1: RfpC (Mycobacterium tuberculosum), O07747 (protein)
# chain: MHHHHHHSSGRENLYFQGHMASKSAMAAGLVTASMSLSTAVAHAGPSPNWDAVAQCESGGNWAANTGNGKYGGLQFKPATWAAFGGVGNPAAASREQQIAVANRVLAEQGLDAWPTCGAASGLPIALWSKPAQGIKGS
# Columns and labels:
# Test in all cases: glycan array binding signal (z-score within array); higher = stronger binding
# Details in all cases: glycan notation: IUPAC condensed, linker removed
# [1] = target: Neu5Ac(a2-3)Gal(b1-3)[Neu5Ac(a2-3)Gal(b1-4)]GlcNAc
# In short: (§1)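 The binding signal is a Z-score computed within each array and averaged over linkers. Arrays of the same protein sequence at different concentrations or buffers were also averaged together. Data originate from 3228 arrays in the Consortium for Functional Glycomics database, kept only where the protein sequence was available.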
# [2] = target: Neu5Ac(a2-3)Gal(b1-3)[Neu5Ac(a2-6)]GalNAc
# In short: as §1
# Neu5Ac(a2-3)Gal(b1-4)Glc = target: Neu5Ac(a2-3)Gal(b1-4)Glc
# In short: as §1
# [3] = target: Neu5Ac(a2-3)Gal(b1-4)GlcNAc
# In short: as §1
# [4] = target: Neu5Ac(a2-3)Gal(b1-4)GlcNAc(b1-2)Man(a1-3)[GlcNAc(b1-2)Man(b1-4)GlcNAc(b1-2)Man(a1-6)]Man(b1-4)GlcNAc(b1-4)GlcNAc
# In short: as §1
# [5] = target: Neu5Ac(a2-3)Gal(b1-4)GlcNAc(b1-2)Man(a1-3)[Neu5Ac(a2-6)Gal(b1-4)GlcNAc(b1-2)Man(a1-6)]Man(b1-4)GlcNAc(b1-4)GlcNAc
# In short: as §1
# [6] = target: Neu5Ac(a2-3)Gal(b1-4)GlcNAc(b1-3)Gal(b1-3)GlcNAc
# In short: as §1
# [7] = target: Neu5Ac(a2-3)Gal(b1-4)GlcNAc(b1-3)Gal(b1-4)GlcNAc
# In short: as §1
# [8] = target: Neu5Ac(a2-3)Gal(b1-4)GlcNAc(b1-3)Gal(b1-4)GlcNAc(b1-3)Gal(b1-4)GlcNAc
# In short: as §1
# [9] = target: Neu5Ac(a2-3)Gal(b1-4)GlcNAc(b1-3)Gal(b1-4)[Fuc(a1-3)]GlcNAc
# In short: as §1
# [10] = target: Neu5Ac(a2-3)Gal(b1-4)GlcNAc(b1-6)[Gal(b1-3)]GalNAc
# In short: as §1
# [11] = target: Neu5Ac(a2-3)Gal(b1-4)GlcNAc(b1-6)[Neu5Ac(a2-3)Gal(b1-3)]GalNAc
# In short: as §1
# [12] = target: Neu5Ac(a2-3)Gal(b1-4)GlcNAc6S
# In short: as §1
# [13] = target: Neu5Ac(a2-3)Gal(b1-4)[Fuc(a1-3)]GlcNAc
# In short: as §1
# [14] = target: Neu5Ac(a2-3)Gal(b1-4)[Fuc(a1-3)]GlcNAc(b1-3)Gal
# In short: as §1
# [15] = target: Neu5Ac(a2-3)Gal(b1-4)[Fuc(a1-3)]GlcNAc(b1-3)Gal(b1-4)GlcNAc
# In short: as §1
# [16] = target: Neu5Ac(a2-3)Gal(b1-4)[Fuc(a1-3)]GlcNAc(b1-3)Gal(b1-4)[Fuc(a1-3)]GlcNAc(b1-3)Gal(b1-4)[Fuc(a1-3)]GlcNAc
# In short: as §1
# [17] = target: Neu5Ac(a2-3)Gal(b1-4)[Fuc(a1-3)]GlcNAc(b1-6)[Gal(b1-3)]GalNAc
# In short: as §1
# [18] = target: Neu5Ac(a2-3)Gal(b1-4)[Fuc(a1-3)]GlcNAc6S
# In short: as §1
# [19] = target: Neu5Ac(a2-3)Gal6S(b1-4)GlcNAc
# In short: as §1
# [20] = target: Neu5Ac(a2-3)Gal6S(b1-4)[Fuc(a1-3)]GlcNAc
# In short: as §1
# Neu5Ac(a2-3)GalNAc = target: Neu5Ac(a2-3)GalNAc
# In short: as §1
# [21] = target: Neu5Ac(a2-3)GalNAc(b1-4)GlcNAc
# In short: as §1
# [22] = target: Neu5Ac(a2-3)[GalNAc(b1-4)]Gal(b1-4)Glc
# In short: as §1
# [23] = target: Neu5Ac(a2-3)[GalNAc(b1-4)]Gal(b1-4)GlcNAc
# In short: as §1
# [24] = target: Neu5Ac(a2-3)[Neu5Ac(a2-6)]GalNAc
# In short: as §1
# Neu5Ac(a2-6)Gal = target: Neu5Ac(a2-6)Gal
# In short: as §1
# Neu5Ac(a2-6)Gal(b1-4)Glc = target: Neu5Ac(a2-6)Gal(b1-4)Glc
# In short: as §1
# [25] = target: Neu5Ac(a2-6)Gal(b1-4)GlcNAc
# In short: as §1
# [26] = target: Neu5Ac(a2-6)Gal(b1-4)GlcNAc(b1-2)Man(a1-3)[Gal(b1-4)GlcNAc(b1-2)Man(a1-6)]Man(b1-4)GlcNAc(b1-4)GlcNAc
# In short: as §1
# [27] = target: Neu5Ac(a2-6)Gal(b1-4)GlcNAc(b1-2)Man(a1-3)[GlcNAc(b1-2)Man(a1-6)]Man(b1-4)GlcNAc(b1-4)GlcNAc
# In short: as §1
# [28] = target: Neu5Ac(a2-6)Gal(b1-4)GlcNAc(b1-2)Man(a1-3)[GlcNAc(b1-2)Man(b1-4)GlcNAc(b1-2)Man(a1-6)]Man(b1-4)GlcNAc(b1-4)GlcNAc
# In short: as §1
# [29] = target: Neu5Ac(a2-6)Gal(b1-4)GlcNAc(b1-2)Man(a1-3)[Neu5Ac(a2-6)Gal(b1-4)GlcNAc(b1-2)Man(a1-6)]Man(b1-4)GlcNAc(b1-4)GlcNAc
# In short: as §1
# [30] = target: Neu5Ac(a2-6)Gal(b1-4)GlcNAc(b1-2)Man(a1-6)[Gal(b1-4)GlcNAc(b1-2)Man(a1-3)]Man(b1-4)GlcNAc(b1-4)GlcNAc
# In short: as §1
# [31] = target: Neu5Ac(a2-6)Gal(b1-4)GlcNAc(b1-2)Man(a1-6)[GlcNAc(b1-2)Man(a1-3)]Man(b1-4)GlcNAc(b1-4)GlcNAc
# In short: as §1
# [32] = target: Neu5Ac(a2-6)Gal(b1-4)GlcNAc(b1-3)Gal(b1-4)GlcNAc
# In short: as §1
# [33] = target: Neu5Ac(a2-6)Gal(b1-4)GlcNAc(b1-3)Gal(b1-4)[Fuc(a1-3)]GlcNAc(b1-3)Gal(b1-4)[Fuc(a1-3)]GlcNAc
# In short: as §1
# [34] = target: Neu5Ac(a2-6)Gal(b1-4)GlcNAc6S
# In short: as §1
# Neu5Ac(a2-6)GalNAc = target: Neu5Ac(a2-6)GalNAc
# In short: as §1
# [35] = target: Neu5Ac(a2-6)GalNAc(b1-4)GlcNAc
# In short: as §1
# Neu5Ac(a2-8)Neu5Ac = target: Neu5Ac(a2-8)Neu5Ac
# In short: as §1
# [36] = target: Neu5Ac(a2-8)Neu5Ac(a2-3)Gal(b1-4)Glc
# In short: as §1
# [37] = target: Neu5Ac(a2-8)Neu5Ac(a2-3)[GalNAc(b1-4)]Gal(b1-4)Glc
# In short: as §1
# [38] = target: Neu5Ac(a2-8)Neu5Ac(a2-8)Neu5Ac
# In short: as §1
# [39] = target: Neu5Ac(a2-8)Neu5Ac(a2-8)Neu5Ac(a2-3)Gal(b1-4)Glc
# In short: as §1
# [40] = target: Neu5Ac(a2-8)Neu5Ac(a2-8)Neu5Ac(a2-3)[GalNAc(b1-4)]Gal(b1-4)Glc
# In short: as §1
# [41] = target: Neu5Ac(a2-8)Neu5Ac(a2-8)Neu5Ac(a2-8)Neu5Ac(a2-3)[GalNAc(b1-4)]Gal(b1-4)Glc
# In short: as §1
# [42] = target: Neu5Ac(b2-6)Gal(b1-4)GlcNAc
# In short: as §1
# Neu5Ac(b2-6)GalNAc = target: Neu5Ac(b2-6)GalNAc
# In short: as §1
# [43] = target: Neu5Ac9Ac(a2-6)Gal(b1-4)GlcNAc
# In short: as §1
# [44] = target: Neu5Gc(a2-3)Gal(b1-3)GlcNAc
# In short: as §1
# [45] = target: Neu5Gc(a2-3)Gal(b1-3)[Fuc(a1-4)]GlcNAc
# In short: as §1
# Neu5Gc(a2-3)Gal(b1-4)Glc = target: Neu5Gc(a2-3)Gal(b1-4)Glc
# In short: as §1
# [46] = target: Neu5Gc(a2-3)Gal(b1-4)GlcNAc
# In short: as §1
# [47] = target: Neu5Gc(a2-3)Gal(b1-4)[Fuc(a1-3)]GlcNAc
# In short: as §1
# [48] = target: Neu5Gc(a2-6)Gal(b1-4)GlcNAc
# In short: as §1
# Neu5Gc(a2-6)GalNAc = target: Neu5Gc(a2-6)GalNAc
# In short: as §1
# [49] = target: Neu5Gc(b2-6)Gal(b1-4)GlcNAc
# In short: as §1
binder,measurement,setting,value
B1,glycan array binding signal (z-score),[1],-0.688
same,glycan array binding signal (z-score),[2],-0.194
same,glycan array binding signal (z-score),Neu5Ac(a2-3)Gal(b1-4)Glc,0.008
same,glycan array binding signal (z-score),[3],0.366
same,glycan array binding signal (z-score),[4],-0.194
same,glycan array binding signal (z-score),[5],0.203
same,glycan array binding signal (z-score),[6],-1.06
same,glycan array binding signal (z-score),[7],1.29
same,glycan array binding signal (z-score),[8],-0.896
same,glycan array binding signal (z-score),[9],-0.432
same,glycan array binding signal (z-score),[10],-0.262
same,glycan array binding signal (z-score),[11],-0.696
same,glycan array binding signal (z-score),[12],-0.765
same,glycan array binding signal (z-score),[13],-0.251
same,glycan array binding signal (z-score),[14],1.29
same,glycan array binding signal (z-score),[15],2.25
same,glycan array binding signal (z-score),[16],-0.798
same,glycan array binding signal (z-score),[17],0.309
same,glycan array binding signal (z-score),[18],1.29
same,glycan array binding signal (z-score),[19],-1.15
same,glycan array binding signal (z-score),[20],-0.738
same,glycan array binding signal (z-score),Neu5Ac(a2-3)GalNAc,1.09
same,glycan array binding signal (z-score),[21],-0.081
same,glycan array binding signal (z-score),[22],-0.195
same,glycan array binding signal (z-score),[23],0.75
same,glycan array binding signal (z-score),[24],0.475
same,glycan array binding signal (z-score),Neu5Ac(a2-6)Gal,-0.409
same,glycan array binding signal (z-score),Neu5Ac(a2-6)Gal(b1-4)Glc,0.057
same,glycan array binding signal (z-score),[25],-0.595
same,glycan array binding signal (z-score),[26],-0.731
same,glycan array binding signal (z-score),[27],-0.288
same,glycan array binding signal (z-score),[28],-0.604
same,glycan array binding signal (z-score),[29],-0.031
same,glycan array binding signal (z-score),[30],0.204
same,glycan array binding signal (z-score),[31],-0.953
same,glycan array binding signal (z-score),[32],-1.31
same,glycan array binding signal (z-score),[33],-0.135
same,glycan array binding signal (z-score),[34],-1.1
same,glycan array binding signal (z-score),Neu5Ac(a2-6)GalNAc,-1.24
same,glycan array binding signal (z-score),[35],-0.611
same,glycan array binding signal (z-score),Neu5Ac(a2-8)Neu5Ac,-0.588
same,glycan array binding signal (z-score),[36],-1.23
same,glycan array binding signal (z-score),[37],-0.901
same,glycan array binding signal (z-score),[38],-0.143
same,glycan array binding signal (z-score),[39],-0.861
same,glycan array binding signal (z-score),[40],0.23
same,glycan array binding signal (z-score),[41],-0.839
same,glycan array binding signal (z-score),[42],-0.686
same,glycan array binding signal (z-score),Neu5Ac(b2-6)GalNAc,-0.487
same,glycan array binding signal (z-score),[43],0.494
same,glycan array binding signal (z-score),[44],1.21
same,glycan array binding signal (z-score),[45],-0.123
same,glycan array binding signal (z-score),Neu5Gc(a2-3)Gal(b1-4)Glc,1.61
same,glycan array binding signal (z-score),[46],-0.767
same,glycan array binding signal (z-score),[47],-1.35
same,glycan array binding signal (z-score),[48],-0.008
same,glycan array binding signal (z-score),Neu5Gc(a2-6)GalNAc,1.8
same,glycan array binding signal (z-score),[49],3.14
